{
  "source": "the supplement of paper PMC7830784",
  "note": "Structures can show the parent of a compound that is named as a salt. Some of the results follow. This data set is noisy: repeats of one test often differ as much as different tests do. Positions of bridges follow the written chain, without caps; N, C: chain ends. Non-standard residues stand in square brackets, D forms with d. Residues, ends and D or L forms follow the SMILES beside them. *: point of attachment. Ileψ(thiazoline)Cys = CC[C@H](C)[C@H](N)C1=N[C@H](C(=O)*)CS1; dOrn = NCCC[C@@H](N)C(=O)O",
  "data": [
    {"system": "Brugia pahangi adult female", "assay": "motility inhibition on day 3 relative to DMSO vehicle; higher = more active", "conditions": "10 µM; 3 days", "units": {"motility inhibition on day 3": "%"}, "values": [
      {"smiles": "CNC[C@H](O)c1ccc(O)c(O)c1", "note": "[adrenaline bitartrate]", "motility inhibition on day 3": 1.86},
      {"smiles": "CN1CCN(CCCN2c3ccccc3Sc3ccc(C(F)(F)F)cc32)CC1", "note": "[Trifluoperazine dihydrochloride]", "motility inhibition on day 3": 5.57},
      {"smiles": "CC(S)C(=O)NCC(=O)O", "note": "(stereo not given) [tiopronin]", "motility inhibition on day 3": 0.035},
      {"smiles": "COc1ccc(OC)c(C(O)CNC(=O)CN)c1", "note": "(stereo not given) [midodrine hydrochloride]", "motility inhibition on day 3": "< 0"},
      {"smiles": "CC(=O)NS(=O)(=O)c1ccc(NC(=O)c2ccccc2C(=O)O)cc1", "note": "[phthalylsulfacetamide]", "motility inhibition on day 3": 5.81},
      {"smiles": "CC[C@H](C)[C@H](N)C1=N[C@H](C(=O)N[C@@H](CC(C)C)C(=O)N[C@H](CCC(=O)O)C(=O)N[C@H](C(=O)N[C@H]2CCCCNC(=O)[C@H](CC(N)=O)NC(=O)[C@@H](CC(=O)O)NC(=O)[C@H](Cc3cnc[nH]3)NC(=O)[C@@H](Cc3ccccc3)NC(=O)[C@H]([C@@H](C)CC)NC(=O)[C@@H](CCCN)NC2=O)[C@@H](C)CC)CS1", "note": "[bacitracin] ({Ileψ(thiazoline)Cys}-L[dE]IK[dOrn]I[dF]H[dD]N; lactam 4-C)", "motility inhibition on day 3": 10.4},
      {"smiles": "OC(CNCC(O)C1CCc2cc(F)ccc2O1)C1CCc2cc(F)ccc2O1", "note": "(stereo not given) [nebivolol hydrochloride]", "motility inhibition on day 3": 5.1},
      {"smiles": "Oc1c(I)cc(Cl)c2cccnc12", "note": "[clioquinol]", "motility inhibition on day 3": 78.9},
      {"smiles": "CC(C)(C#N)c1cc(Cn2cncn2)cc(C(C)(C)C#N)c1", "note": "[anastrozole]", "motility inhibition on day 3": "< 0"},
      {"smiles": "CN(C)CCOC(C)(c1ccccc1)c1ccccn1", "note": "(stereo not given) [doxylamine succinate]", "motility inhibition on day 3": "< 0"},
      {"smiles": "C=CCNC(N)=S", "note": "[allylthiourea]", "motility inhibition on day 3": 36},
      {"smiles": "CC(=O)c1ccc2c(c1)N(CCCN(C)C)c1ccccc1S2", "note": "[acepromazine maleate]", "motility inhibition on day 3": 9.55},
      {"smiles": "CN(C(=O)C(Cl)Cl)c1ccc(OC(=O)c2ccco2)cc1", "note": "[diloxanide furoate]", "motility inhibition on day 3": 6.09},
      {"smiles": "COc1cc(/C=C/C(N)=O)cc(OC)c1OC", "note": "[cintriamide]", "motility inhibition on day 3": 37.1},
      {"smiles": "Nc1ccn([C@H]2CC[C@@H](CO)O2)c(=O)n1", "note": "[zalcitabine]", "motility inhibition on day 3": 0.742},
      {"smiles": "COc1ccc2c(c1)c(CC(=O)O)c(C)n2C(=O)c1ccc(Cl)cc1", "note": "[Indomethacin]", "motility inhibition on day 3": 36.6},
      {"smiles": "CN1CCC(=C2c3ccccc3CCc3cccnc32)CC1", "note": "[azatadine maleate]", "motility inhibition on day 3": "< 0"},
      {"smiles": "Nc1nc2ccc(OC(F)(F)F)cc2s1", "note": "[Riluzole]", "motility inhibition on day 3": 7.54},
      {"smiles": "OC[C@H]1O[C@H](O[C@]2(CCl)O[C@H](CCl)[C@@H](O)[C@@H]2O)[C@H](O)[C@@H](O)[C@H]1Cl", "note": "[sucralose]", "motility inhibition on day 3": "< 0"},
      {"smiles": "O=C(C1CCCCC1)N1CC(=O)N2CCc3ccccc3C2C1", "note": "(stereo not given) [praziquantel]", "motility inhibition on day 3": 1.7}
    ]}
  ]
}
